# Measurements taken from PMC5852159, “Hydrogen peroxide positively regulates brassinosteroid signaling through oxidation of the BRASSINAZOLE-RESISTANT1 transcription factor” (Nature Communications, 2018).
# These are yes or no findings as the source states them, for the method shown. For some assays here: Binding seen in cells or lysates may run through a third protein. Some results given as binding are weak or reduced against the parent protein; the word gives no strength. For some assays here: Sequences can lack the tags named with a protein.
# Tests used:
# [1] = target: T1, ARF6-nYFP (rBiFC, pBiFCt-2in1-CC) (Arabidopsis thaliana) (UniProt Q9ZTX8); test: split reporter; ratiometric BiFC (rBiFC), both partners and RFP reference on one vector (pBiFCt-2in1-CC), epidermal cells of tobacco leaves, mock or 1 mM H2O2 for 30 min; YFP/RFP ratio
# T1 sequence: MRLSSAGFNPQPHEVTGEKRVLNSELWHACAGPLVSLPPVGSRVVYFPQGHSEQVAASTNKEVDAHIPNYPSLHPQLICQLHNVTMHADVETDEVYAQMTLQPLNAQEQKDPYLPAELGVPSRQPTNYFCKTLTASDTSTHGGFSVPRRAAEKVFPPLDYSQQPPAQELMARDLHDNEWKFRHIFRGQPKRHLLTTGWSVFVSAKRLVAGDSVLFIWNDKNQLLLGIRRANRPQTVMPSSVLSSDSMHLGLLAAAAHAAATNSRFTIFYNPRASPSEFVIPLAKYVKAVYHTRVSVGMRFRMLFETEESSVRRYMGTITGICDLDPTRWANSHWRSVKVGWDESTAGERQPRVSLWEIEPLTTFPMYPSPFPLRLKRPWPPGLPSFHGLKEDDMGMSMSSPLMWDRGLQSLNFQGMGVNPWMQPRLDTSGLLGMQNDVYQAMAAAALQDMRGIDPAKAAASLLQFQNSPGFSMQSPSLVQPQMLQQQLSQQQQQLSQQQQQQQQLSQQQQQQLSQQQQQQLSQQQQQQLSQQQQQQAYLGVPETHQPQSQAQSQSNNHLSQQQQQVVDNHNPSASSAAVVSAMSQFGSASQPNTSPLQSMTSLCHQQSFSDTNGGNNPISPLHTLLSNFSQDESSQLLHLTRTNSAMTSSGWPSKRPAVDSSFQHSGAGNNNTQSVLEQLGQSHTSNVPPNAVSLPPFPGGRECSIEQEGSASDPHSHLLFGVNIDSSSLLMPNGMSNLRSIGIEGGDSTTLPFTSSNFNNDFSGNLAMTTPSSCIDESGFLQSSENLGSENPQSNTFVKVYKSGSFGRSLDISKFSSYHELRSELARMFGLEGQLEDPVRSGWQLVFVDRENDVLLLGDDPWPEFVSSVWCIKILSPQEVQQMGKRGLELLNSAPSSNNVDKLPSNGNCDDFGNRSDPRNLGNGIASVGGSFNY
# [2] = target: T2, PIF4-nYFP (rBiFC, pBiFCt-2in1-CC) (Arabidopsis thaliana) (UniProt Q8W2F3); test: as above
# T2 sequence: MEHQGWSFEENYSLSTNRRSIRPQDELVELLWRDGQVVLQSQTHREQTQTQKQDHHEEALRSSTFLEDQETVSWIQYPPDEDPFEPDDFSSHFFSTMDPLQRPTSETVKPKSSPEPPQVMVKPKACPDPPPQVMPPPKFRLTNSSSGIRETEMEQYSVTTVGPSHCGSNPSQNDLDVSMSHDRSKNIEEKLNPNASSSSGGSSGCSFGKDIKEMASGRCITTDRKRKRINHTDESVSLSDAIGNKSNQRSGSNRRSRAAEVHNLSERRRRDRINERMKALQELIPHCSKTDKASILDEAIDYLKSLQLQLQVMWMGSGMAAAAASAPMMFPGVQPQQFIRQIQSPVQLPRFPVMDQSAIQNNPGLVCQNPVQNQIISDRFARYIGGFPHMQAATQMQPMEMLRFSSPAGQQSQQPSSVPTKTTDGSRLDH
# [3] = target: T3, PIF4-YFP (Arabidopsis thaliana) (UniProt Q8W2F3); test: co-IP; extracts of Arabidopsis mesophyll protoplasts transformed with BZR1-Myc and/or PIF4-YFP, mock or 100 µM H2O2 for 1 h; GFP-Trap agarose beads; blots with anti-Myc and anti-YFP (ARF6: Supplementary Fig. 9g)
# T3 sequence: T2 sequence
# [4] = target: T4, ARF6 (construct of the co-immunoprecipitation, Supplementary Fig. 9g) (Arabidopsis thaliana) (UniProt Q9ZTX8); test: as above
# T4 sequence: T1 sequence
# [5] = target: T5, TRXh5-Myc (p35S:TRXh5-Myc) (Arabidopsis thaliana) (UniProt Q39241); test: co-IP; extracts of transgenic Arabidopsis expressing pBZR1:BZR1-YFP only or with p35S:TRXh5-Myc; Myc-trap beads; blots with anti-Myc or anti-YFP
# T5 sequence: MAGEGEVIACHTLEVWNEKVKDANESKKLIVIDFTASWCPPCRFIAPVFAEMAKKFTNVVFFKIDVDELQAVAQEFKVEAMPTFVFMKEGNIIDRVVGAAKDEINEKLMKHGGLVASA
# [6] = target: T6, GST-PIF4 (glutathione-S-transferase-PHYTOCHROME … FACTOR4) (Arabidopsis thaliana) (UniProt Q8W2F3); test: pull-down; glutathione beads with 1 µg GST fusion incubated with 1 µg MBP or MBP fusion; 20 mM Tris-HCl pH 7.5, 100 mM NaCl, 1 mM EDTA, with or without 1 mM H2O2, 4 °C, 1 h; washed with 300 mM NaCl, 0.1% Nonidet P-40; blots with anti-MBP and anti-GST; both purified
# T6 sequence: T2 sequence
# [7] = target: T7, GST-ARF6 (GST-AUXIN RESPONSE FACTOR6) (Arabidopsis thaliana) (UniProt Q9ZTX8); test: as above
# T7 sequence: T1 sequence
# [8] = target: T8, TRXh5-nYFP (Arabidopsis thaliana) (UniProt Q39241); test: split reporter; BiFC in tobacco leaves: BZR1-cYFP or BES1-cYFP co-expressed with TRX-h proteins fused to nYFP
# T8 sequence: T5 sequence
substance,measurement,setting,value
"BZR1^5S-cYFP (rBiFC, pBiFCt-2in1-CC) (from UniProt Q8S307 1-336)",binding,[1],binds weakly
same,binding,[2],binds weakly
BZR1-Myc (from UniProt Q8S307 1-336),binding,[3],binds
same,binding,[4],binds
BZR1-YFP (pBZR1:BZR1-YFP) (from UniProt Q8S307 1-336),binding,[5],binds
MBP-BZR1^C63S (from UniProt Q8S307 1-336),binding,[6],binds
MBP-BZR1 (maltose-binding protein-BRASSINAZOLE-…1 fusion) (from UniProt Q8S307 1-336),binding,[7],binds
same,binding,[6],binds
"BZR1-cYFP (rBiFC, pBiFCt-2in1-CC) (from UniProt Q8S307 1-336)",binding,[1],binds
same,binding,[2],binds
"BZR1-cYFP (BiFC, pX-cYFP) (from UniProt Q8S307 1-336)",binding,[8],binds
